PubChem BioAssay AID504791 – Drosophila RNAi Screening Center, 2011
Screen: 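Genes of the fly required for silencing by miRNA, siRNA or endo-siRNA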 (primary screen). System: Drosophila S2-derived reporter cells. Knock-down reagent: long dsRNA against Drosophila genes, about 150-250 ng dsRNA per well (siRNA assay); about 80-120 ng (miRNA assay). Timing: about 5 days (siRNA assay); about 4 days (miRNA assay). Conditions: copper sulfate induction of reporters: 25 µM (siRNA assay); 200 mM stated (miRNA assay), 1-2 days before reading. Measured: 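Dual luciferase assay: Renilla to firefly signal ratio in each well, scaled to the mean ratio of its plate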. Units: stable assay Renilla, run 1 in luminescence; stable assay firefly, run 1 in luminescence. Call rule: 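a well was a first-pass pick when its plate-scaled ratio rose above 1.5 (siRNA assay) or 1.6 (miRNA assay), or dropped below 0.6; a gene counted only if two separate dsRNAs agreed on retest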.
The deposit covers about 23,000 reagents; shown is an unselected part of those that have a named target and a result. Over the whole deposit, 199 (0.86%) got an active call. 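Plate-scaled ratios behind the calls are not deposited; printed light signals are raw; many rows marked increased or decreased are still called inactive.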 The numbers tell different reagents against one gene apart. Not stated in the record: the direction of the score.

CG10694 (GeneID 42855)
- stable assay Renilla, run 1: 7874
- stable assay firefly, run 1: 3.81e5
- outcome: inactive

CG5388 (GeneID 42612)
- stable assay Renilla, run 1: 7347
- stable assay firefly, run 1: 3.70e5
- outcome: inactive

CG15186 (GeneID 40797)
- stable assay Renilla, run 1: 6864
- stable assay firefly, run 1: 3.83e5
- outcome: inactive

CG3434 (GeneID 39098)
- stable assay Renilla, run 1: 7371
- stable assay firefly, run 1: 4.14e5
- outcome: inactive

CG4960 (GeneID 43115)
- stable assay Renilla, run 1: 6090
- stable assay firefly, run 1: 2.77e5
- outcome: inactive

CG43775 (GeneID 37863)
- stable assay Renilla, run 1: 5327
- stable assay firefly, run 1: 2.82e5
- outcome: inactive

CG14963 (GeneID 38383)
- stable assay Renilla, run 1: 6880
- stable assay firefly, run 1: 4.68e5
- outcome: inactive

emp (GeneID 37999) #1
- stable assay Renilla, run 1: 5407
- stable assay firefly, run 1: 5.22e5
- outcome: inactive

emp (GeneID 37999) #2
- stable assay Renilla, run 1: 10021
- stable assay firefly, run 1: 1.72e6
- outcome: inactive

CG8778 (GeneID 36392)
- stable assay Renilla, run 1: 4959
- stable assay firefly, run 1: 2.87e5
- outcome: inactive

Teh3 (GeneID 50170)
- stable assay Renilla, run 1: 6963
- stable assay firefly, run 1: 3.34e5
- outcome: inactive

eIF5B (GeneID 44261) #1
- stable assay Renilla, run 1: 4463
- stable assay firefly, run 1: 3.52e5
- outcome: inactive

eIF5B (GeneID 44261) #2
- miRNA reporter change: reporter ratio lowered past the hit cutoff
- stable assay Renilla, run 1: 5767
- stable assay firefly, run 1: 4.90e5
- outcome: inactive

RunxB (GeneID 33051) #1
- stable assay Renilla, run 1: 3772
- stable assay firefly, run 1: 3.44e5
- outcome: inactive

RunxB (GeneID 33051) #2
- stable assay Renilla, run 1: 6474
- stable assay firefly, run 1: 4.28e5
- outcome: inactive

RunxB (GeneID 33051) #3
- miRNA reporter change: reporter ratio raised past the hit cutoff
- stable assay Renilla, run 1: 5084
- stable assay firefly, run 1: 2.86e5
- outcome: inactive

RunxB (GeneID 33051) #4
- stable assay Renilla, run 1: 4876
- stable assay firefly, run 1: 3.20e5
- outcome: inactive

wdn (GeneID 43398)
- stable assay Renilla, run 1: 8947
- stable assay firefly, run 1: 4.74e5
- outcome: inactive

CG9010 (GeneID 36904)
- stable assay Renilla, run 1: 9763
- stable assay firefly, run 1: 3.88e5
- outcome: inactive

CG10347 (GeneID 32141)
- stable assay Renilla, run 1: 5819
- stable assay firefly, run 1: 3.73e5
- outcome: inactive

CG9308 (GeneID 37507)
- stable assay Renilla, run 1: 7739
- stable assay firefly, run 1: 4.58e5
- outcome: inactive

CG5969 (GeneID 40269)
- stable assay Renilla, run 1: 7526
- stable assay firefly, run 1: 3.89e5
- outcome: inactive

CG18870 (GeneID 59218)
- stable assay Renilla, run 1: 7679
- stable assay firefly, run 1: 4.49e5
- outcome: inactive

Ugt35B1 (GeneID 41333)
- stable assay Renilla, run 1: 8313
- stable assay firefly, run 1: 4.68e5
- outcome: inactive

CG33307 (GeneID 2768914)
- stable assay Renilla, run 1: 5651
- stable assay firefly, run 1: 4.37e5
- outcome: inactive

CG11159 (GeneID 37341)
- stable assay Renilla, run 1: 4887
- stable assay firefly, run 1: 3.11e5
- outcome: inactive

Nup58 (GeneID 42342)
- stable assay Renilla, run 1: 5947
- stable assay firefly, run 1: 2.65e5
- outcome: inactive

CG31380 (GeneID 318701)
- stable assay Renilla, run 1: 6412
- stable assay firefly, run 1: 2.81e5
- outcome: inactive

Ordered by “stable assay firefly, run 1” (ascending): some entries from above
RunxB (GeneID 33051) #3
- miRNA reporter change: reporter ratio raised past the hit cutoff
- stable assay Renilla, run 1: 5084
- stable assay firefly, run 1: 2.86e5
- outcome: inactive

RunxB (GeneID 33051) #1
- stable assay Renilla, run 1: 3772
- stable assay firefly, run 1: 3.44e5
- outcome: inactive

RunxB (GeneID 33051) #2
- stable assay Renilla, run 1: 6474
- stable assay firefly, run 1: 4.28e5
- outcome: inactive
